Data from paper PMC10014099.

Assays:
HA-Plek2 (pleckstrin-2) = target: T1, HA-Plek2 (pleckstrin-2) (UniProt Q9WV52); experiment: co-IP; IP with anti-HA magnetic beads from lysate of 293T cells transfected with HA-Plek2, Western blot
T1 sequence: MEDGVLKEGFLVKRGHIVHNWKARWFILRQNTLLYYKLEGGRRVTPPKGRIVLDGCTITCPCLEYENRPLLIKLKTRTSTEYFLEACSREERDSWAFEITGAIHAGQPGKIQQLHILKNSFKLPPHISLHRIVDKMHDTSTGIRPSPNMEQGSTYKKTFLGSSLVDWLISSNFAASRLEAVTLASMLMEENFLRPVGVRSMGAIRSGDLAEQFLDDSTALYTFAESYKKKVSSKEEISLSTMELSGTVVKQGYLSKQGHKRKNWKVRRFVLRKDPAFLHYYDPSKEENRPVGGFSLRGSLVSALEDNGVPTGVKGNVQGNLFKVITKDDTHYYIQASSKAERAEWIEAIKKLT

Flag-Plek2 = target: T2, Flag-Plek2 (UniProt Q9WV52); experiment: co-IP; IP with anti-FLAG magnetic beads from lysate of 293T cells transfected with Flag-Plek2, Western blot; also after 20 uM NUP-17d for 2 hours
T2 sequence: T1 sequence

GST-Plek2 [1] = target: T3, GST-Plek2 (UniProt Q9WV52); experiment: pull-down; GST pull-down of GST-Plek2 or GST-DEP with purified His-AKT, Akt detected by Western blot; also with or without 500 uM NUP-17d; both purified
T3 sequence: T1 sequence

GST-Plek2 DEP domain = target: T4, GST-Plek2 DEP domain (UniProt Q9WV52); experiment: as above
T4 sequence: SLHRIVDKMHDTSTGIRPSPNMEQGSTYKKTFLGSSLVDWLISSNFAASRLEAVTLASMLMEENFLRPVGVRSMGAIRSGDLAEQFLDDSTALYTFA

GST-Plek2 [2] = target: T3, GST-Plek2; experiment: pull-down; GST pull-down of GST-Plek2 incubated with lysate of 293T cells, Western blot; only the target purified

binding (HA-Plek2 (pleckstrin-2)): binds
binding (Flag-Plek2): binds
Substance: Akt (human (endogenous in 293T))

binding (GST-Plek2 [1]): binds
binding (GST-Plek2 DEP domain): binds
Substance: His-AKT

binding (GST-Plek2 [2]): binds
Substance: PDK2 (human (endogenous in 293T))

Results are given in words; binding and its absence hold for the method and conditions named. Binding calls can cover weak binding; strength is not graded here. Where a sequence is shown, tags or fusion partners need not be part of it. For some assays here: Binding seen in cells or lysates may run through a third protein. One block for each substance: values may come before it.
